Results are given in words; binding and its absence hold for the method and conditions named. Some entries that bind do so weakly or less than the wild type.
T1: RANKL expressed on the surface of 293 cells (UniProt O14788)
T1 sequence (looked up): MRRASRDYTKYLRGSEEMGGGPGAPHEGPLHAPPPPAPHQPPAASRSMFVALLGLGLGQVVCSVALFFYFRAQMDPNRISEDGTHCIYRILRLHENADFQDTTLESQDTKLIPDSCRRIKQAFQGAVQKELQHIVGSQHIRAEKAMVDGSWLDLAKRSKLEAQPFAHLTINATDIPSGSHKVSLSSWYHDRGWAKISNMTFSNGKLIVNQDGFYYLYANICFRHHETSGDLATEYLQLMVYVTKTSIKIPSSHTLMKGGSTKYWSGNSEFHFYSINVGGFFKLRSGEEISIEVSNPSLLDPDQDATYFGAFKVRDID

T2: human RANKL protein (human, UniProt O14788 140-317, limits assumed)
T2 sequence (looked up): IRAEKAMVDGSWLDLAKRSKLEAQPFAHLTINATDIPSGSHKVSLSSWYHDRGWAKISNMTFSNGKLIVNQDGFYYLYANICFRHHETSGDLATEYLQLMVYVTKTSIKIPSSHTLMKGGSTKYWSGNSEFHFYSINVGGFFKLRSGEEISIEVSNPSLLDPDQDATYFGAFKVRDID


What was measured:
[1] = target: T1, RANKL expressed on the surface of 293 cells; test: flow cytometry, RANKL-transfected 293 cells
[2] = target: T2, human RANKL protein; test: surface plasmon resonance
[3] = target: T1, RANKL expressed on the surface of 293 cells; test: binding to RANKL-transfected 293 cells (FIG. 6)
[4] = target: T2, human RANKL protein; test: ELISA on RANKL protein
[5] = target: T2, human RANKL protein; test: ELISA on RANKL protein (FIG. 12)

Row | binding [1] | binding [2] | binding [3] | binding [4] | Binder | also measured
1 | binds | binds | – | – | clone EBI-51-22 rabbit anti-RANKL antibody (antibody, V domains shown) VH: QSVEESGGRLVTPGTLLTLTCTVSGFSLSTDVLSWVRQAPGKGLEWIGYTWSGGSTYYASWAKGRFTISKTSSTTVDLKITSPTTEDTATYFCARGFNPFDPWGPGTLVTVSS VL: DMTQTPASVSDPVGGTVTIKCQASQNIGSNLAWYQQKPGQRPKLLIYRASTLASGVSSRFKGSGSGTQFTLTISDLECADAATYYCQQGYSAGNVDNNAFGGGTEVVVK | –
2 | – | – | binds | – | humanized clone 408 anti-RANKL antibody (antibody, V domains shown) VH: EVQLVESGGGLVQPGGSLRLSCAVSGFSLSTDVVSWVRQAPGKGLEWIGYTWNGGATFYASWAKGRFTFSKDSSKNTVYLQMNSPRAEDTAVYFCARGYNGMDPWGPGTLVTVSS VL: DIQMTQSPSSLSASVGDRVTIKCQASQNIGSNLAWYQQKPGKPPKLLISKASTLASGVPSRFSGSGSGTDFTLTISSLQPEDFATYYCQQGYTTKNVVNPFGGGTKVEIK | –
3 | binds | binds | – | – | clone 408 rabbit anti-RANKL antibody (antibody, V domains shown) VH: QSVEESGGRLVTPGTPLTLTCTVSGFSLSTDVVSWVRQAPGKGLEWIGYTWNGGATFYASWAKGRFTFSKTSTTVDLKITSPTTEDTATYFCARGYNGMDPWGPGTLVTVSS VL: DMTQTPASVEAAVGGAVTIKCQASQNIGSNLAWYHQKPGQPPKLLISKASTLASGVPSRFKGSGSGTEFTLAISDLECADAATYYCQQGYTTKNVVNPFGGGTEVVVK | –
4 | – | – | – | binds | humanized clone 23 antibody, VH 23HZD-1 HC with humanized VL 23 Vkb, IgG1 (antibody, V domains shown, also called h23 IgG1) VH: EVQLVESGGGLVQPGGSLRLSCAASGFSLSSDGMSWVRQAPGKGLEWIGYIYSGSSPYYANWAKGRFTISKDSSKNTVYLQMNSLRAEDTAVYFCARHGSGGGWYLDIWGPGTLVTVSS VL: DIQMTQSPSSLSASVGDRVTINCQASQSIGSNLAWYQQKPGKRPKLLIYAASTLPSGVPSRFSGSGSGTDFTLTISSLQPEDFATYYCQQAYSVGNVDNAFGGGTKVEIK | –
5 | – | – | binds | – | humanized clone 23 antibody, VH 23HZD-1 HC with humanized VL 23 Vk (antibody, V domains shown, also called humanized 23 Vk; 23LHZD) VH: EVQLVESGGGLVQPGGSLRLSCAASGFSLSSDGMSWVRQAPGKGLEWIGYIYSGSSPYYANWAKGRFTISKDSSKNTVYLQMNSLRAEDTAVYFCARHGSGGGWYLDIWGPGTLVTVSS VL: DIQMTQSPSSLSASVGDRVTINCQASQTIGTNLAWYQQKPGKRPKLLIYAASTLPSGVPSRFSGSGSGTDFTLTISSLQPEDFATYYCQQAYSVGNVDNAFGGGTKVEIK | –
6 | – | – | binds | binds | humanized clone 23 antibody, VH 23HZD-1 HC with humanized VL 23 Vkb, IgG2 (antibody, V domains shown, also called humanized 23 vkb; humanized 23 VKB) VH: EVQLVESGGGLVQPGGSLRLSCAASGFSLSSDGMSWVRQAPGKGLEWIGYIYSGSSPYYANWAKGRFTISKDSSKNTVYLQMNSLRAEDTAVYFCARHGSGGGWYLDIWGPGTLVTVSS VL: DIQMTQSPSSLSASVGDRVTINCQASQSIGSNLAWYQQKPGKRPKLLIYAASTLPSGVPSRFSGSGSGTDFTLTISSLQPEDFATYYCQQAYSVGNVDNAFGGGTKVEIK | –
7 | – | – | – | binds | h23n IgG2 humanized clone 23 antibody (antibody, V domains shown, IgG2; also called h23n VH and VL) VH: QEQLVESGGGLVQPGGSLRLSCVASGFSLSSDGMSWVRQAPGKGLEWIGYIYSGSSPYYANWAKGRFTISKDSSTNTVFLQMNSLRAEDTAVYFCARHGDGGGWYLDIWGPGTLVTVSS VL: DIQMTQSPSSLSASVGDRVTINCQASQSIGSNLAWYQQKPGKAPKLLIYAASTLPSGVSSRFSGSGSGTDFTLTINSLEAEDAATYYCQQAYSVGNVDNAFGGGTKVEIK | binding [5]: binds
8 | binds | binds | – | – | clone 23 rabbit anti-RANKL antibody (antibody, V domains shown, also called RabMAb 23; parent 23 rabbit antibody) VH: QEQLKESGGGLVTPGGTLTLTCTASGFSLSSDGMSWVRQAPGKGLEWIGYIYSGSSPYYANWAKGRFTISKTSSTTVDLKMTSLTTEDTATYFCARHGSGGGWYLDIWGPGTLVTVSS VL: AYDMIQTPASVEVAVGGTVTINCQASQTIGTNLAWYQQKPGQRPKLLIYAASTLPSGVSSRFKGSGSGTQFTLTISDVECSDAATYYCQQAYSVGNVDNAFGGGTEVVVK | –

Source: patent US20160032001A1 (APEXIGEN, published 2016)
